Laboratory results: patent US12295964B2, “Treating pain associated with chemotherapy-induced peripheral neuropathy” (MEDICON PHARMACEUTICALS, INC., priority 2021, dated 2025)
Some results were stated once for a whole list of compounds, not compound by compound. At least one compound was matched to its structure with a doubt left.

Assay: Pharmacokinetics and biodistribution of topical PS in normal mice
Format: in vivo, mouse
Settings: tissues after topical PS 8% ointment
Protocol: PS 8% ointment was applied topically to each hind paw (50 μl per paw) with gentle rubbing. At 0.5, 1, 3, 5, 12, 18, and 24 h, mice (n=4-5 mice/time point) were euthanized with CO2 inhalation. Blood was drawn immediately after death. Tissues, including paw skin, paw muscle, leg muscle, the sciatic nerve and lumbar DRG bilaterally were dissected quickly, immediately frozen in liquid nitrogen and stored at −80° C. until analyzed.

Compound	metabolite levels relative to those of sulindac
CSc1ccc(/C=C2/C(C)=C(CC(=O)O)c3cc(F)ccc32)cc1 [Sulindac sulfide, sulindac sulfide]	< 20%
CC1=C(CC(=O)O)c2cc(F)ccc2/C1=C\c1ccc(S(C)(=O)=O)cc1 [Sulindac sulfone, sulindac sulfone]	< 20%
